Our source for the binding values is article PMC6043850.

Protein sequences, listed by entry. Tags and fused reporters are not part of them. Lines headed by an entry give the natural chain unless they say otherwise; changes in a name come on top.
UniProt P55211: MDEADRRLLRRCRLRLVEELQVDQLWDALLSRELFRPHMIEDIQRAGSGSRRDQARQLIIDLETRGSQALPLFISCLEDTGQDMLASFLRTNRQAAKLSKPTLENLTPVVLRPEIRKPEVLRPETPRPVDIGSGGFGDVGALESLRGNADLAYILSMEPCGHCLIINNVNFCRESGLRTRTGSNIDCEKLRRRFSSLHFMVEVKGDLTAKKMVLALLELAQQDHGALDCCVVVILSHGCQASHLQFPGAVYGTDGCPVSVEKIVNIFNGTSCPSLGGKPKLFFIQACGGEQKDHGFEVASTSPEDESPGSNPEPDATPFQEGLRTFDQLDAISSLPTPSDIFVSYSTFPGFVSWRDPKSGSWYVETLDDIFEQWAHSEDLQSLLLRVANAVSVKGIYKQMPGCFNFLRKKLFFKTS

This experiment addresses T1, Myc-TRAF2 (UniProt Q12933).
T1 sequence: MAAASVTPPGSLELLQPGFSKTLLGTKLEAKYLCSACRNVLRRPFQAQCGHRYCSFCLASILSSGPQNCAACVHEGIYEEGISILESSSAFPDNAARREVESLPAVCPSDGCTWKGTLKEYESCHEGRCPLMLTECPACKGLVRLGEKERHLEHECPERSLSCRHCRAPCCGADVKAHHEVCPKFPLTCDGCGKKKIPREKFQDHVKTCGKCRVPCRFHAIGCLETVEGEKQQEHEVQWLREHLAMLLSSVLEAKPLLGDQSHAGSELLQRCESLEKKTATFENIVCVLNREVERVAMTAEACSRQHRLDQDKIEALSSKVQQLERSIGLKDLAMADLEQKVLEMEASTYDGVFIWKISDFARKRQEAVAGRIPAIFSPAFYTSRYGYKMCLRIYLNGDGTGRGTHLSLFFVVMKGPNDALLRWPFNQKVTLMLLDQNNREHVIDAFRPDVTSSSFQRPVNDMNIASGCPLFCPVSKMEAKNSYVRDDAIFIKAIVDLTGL
The experiment in a line: co-IP; Myc-TRAF2 expressed in HeLa for 48 h; Myc-Trap IP, immunoblot for endogenous caspases.

These are yes or no findings as the source states them, for the method shown. Binding seen in cells or lysates may run through a third protein. Binding can be weak; no strength is given. Tags and fused reporters may be left off the sequences shown.

In the case of “caspase-9 (endogenous) (from UniProt P55211)”, the binding result was “binds”.
